According to US11339442B2, “Methods of detecting insulator dysfunction and oncogene activation for screening, diagnosis and treatment of patients in need thereof” (THE GENERAL HOSPITAL CORPORATION, priority 2015, dated 2022):
Where cells or extracts were used, other partners may take part. Weaker means in comparison with the reference protein, sequence or condition of that experiment. Tags and fusion partners may be left off the protein sequences shown.

Biological target: T1, CTCF (Homo sapiens) (UniProt P49711)
T1 sequence (looked up, limits assumed): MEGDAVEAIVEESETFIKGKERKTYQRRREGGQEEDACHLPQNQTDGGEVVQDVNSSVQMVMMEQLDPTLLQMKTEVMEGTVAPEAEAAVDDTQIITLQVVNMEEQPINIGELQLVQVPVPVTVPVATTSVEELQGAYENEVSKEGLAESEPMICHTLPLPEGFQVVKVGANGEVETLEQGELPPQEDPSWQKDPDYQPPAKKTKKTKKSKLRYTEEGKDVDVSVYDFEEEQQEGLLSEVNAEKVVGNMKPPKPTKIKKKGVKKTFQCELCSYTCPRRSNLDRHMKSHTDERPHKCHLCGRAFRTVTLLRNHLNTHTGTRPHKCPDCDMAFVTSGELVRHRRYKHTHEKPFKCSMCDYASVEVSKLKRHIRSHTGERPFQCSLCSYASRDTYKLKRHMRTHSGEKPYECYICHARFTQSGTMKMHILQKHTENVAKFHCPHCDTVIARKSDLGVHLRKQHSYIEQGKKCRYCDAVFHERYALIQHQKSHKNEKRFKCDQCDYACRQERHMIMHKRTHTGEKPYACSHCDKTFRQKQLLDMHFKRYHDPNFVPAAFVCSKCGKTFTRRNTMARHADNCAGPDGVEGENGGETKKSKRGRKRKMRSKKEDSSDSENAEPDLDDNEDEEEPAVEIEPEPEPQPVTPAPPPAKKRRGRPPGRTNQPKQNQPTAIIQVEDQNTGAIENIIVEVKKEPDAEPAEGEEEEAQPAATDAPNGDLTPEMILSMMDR
Experiment: binding assay
Settings: protein in cells

Sequence: ATGCAGCTAGATGGCGCTC (double strand) [PDGFRA boundary CTCF motif, hypermethylated (IDH mutant)]
- binding result (5mC at the CpG in the motif (partial, fraction of alleles), ChIP-qPCR, occupancy reduced 30-50% in IDH mutant tumors and models vs wildtype, about 3-fold lower in BT142, 5-aza raised occupancy about 1.7-fold): binds more weakly

Sequence: ATGCAGCTAGATGGCGCTC (double strand) [PDGFRA boundary CTCF motif (unmethylated, IDH wildtype)]
- binding result (ChIP-seq and ChIP-qPCR in IDH wildtype gliomas and gliomaspheres): binds
